{"source": "paper doi:10.1101/2023.02.01.526621", "about": "(bioRxiv, 2023)", "target": "T1, GST-CESA3CD (catalytic domain of cellulose synthase CESA3 fused to GST) (Arabidopsis thaliana) (UniProt Q941L0)", "T1 sequence": "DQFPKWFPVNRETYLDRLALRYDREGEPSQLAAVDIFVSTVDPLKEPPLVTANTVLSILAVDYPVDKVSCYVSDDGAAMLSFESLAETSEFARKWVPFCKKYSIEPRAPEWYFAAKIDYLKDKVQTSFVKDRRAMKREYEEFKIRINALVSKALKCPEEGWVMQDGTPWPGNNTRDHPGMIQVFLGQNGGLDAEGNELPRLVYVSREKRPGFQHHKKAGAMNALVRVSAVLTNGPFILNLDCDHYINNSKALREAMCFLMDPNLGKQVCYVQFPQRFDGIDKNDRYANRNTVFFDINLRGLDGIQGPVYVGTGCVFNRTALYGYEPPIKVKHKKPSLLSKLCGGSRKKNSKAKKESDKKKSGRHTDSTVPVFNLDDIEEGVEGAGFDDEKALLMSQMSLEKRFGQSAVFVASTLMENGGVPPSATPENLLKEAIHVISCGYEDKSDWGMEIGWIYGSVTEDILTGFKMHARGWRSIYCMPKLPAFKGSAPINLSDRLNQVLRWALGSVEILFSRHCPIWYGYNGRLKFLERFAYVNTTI", "assay": "pull-down", "note": "Results are given in words; binding and its absence hold for the method and conditions named. Some entries that bind do so weakly or less than the wild type. Sequences can lack the tags named with a protein."}
{"binder": "His-CPK32-K (kinase domain of CPK32) (domain or fragment, UniProt Q6NLQ6 63-321) YTLGRELGRGEFGVTYLCTDKETDDVFACKSILKKKLRTAVDIEDVRREVEIMRHMPEHPNVVTLKETYEDEHAVHLVMELCEGGELFDRIVARGHYTERAAAAVTKTIMEVVQVCHKHGVMHRDLKPENFLFGNKKETAPLKAIDFGLSVFFKPGERFNEIVGSPYYMAPEVLKRNYGPEVDIWSAGVILYILLCGVPPFWAETEQGVAQAIIRSVLDFRRDPWPKVSENAKDLIRKMLDPDQKRRLTAQQVLDHPWL", "values": [{"measurement": "binding", "value": "binds"}]}
